Assay results taken from patent publication US20250145665A1, “MACROCYCLIC PEPTIDES USEFUL AS MODULATORS OF TNF ALPHA” (Bristol-Myers Squibb Company, priority 2023, published 2025).
Some results were stated once for a whole list of compounds, not compound by compound. Positions of bridges follow the written chain, without caps; N, C: chain ends. Non-standard residues stand in square brackets, D forms with d. Residues, ends and D or L forms follow the SMILES beside them. Bip(4'-COOH) = N[C@@H](Cc1ccc(-c2ccc(C(=O)O)cc2)cc1)C(=O)O; Bip(4'-NHAc) = CC(=O)Nc1ccc(-c2ccc(C[C@H](N)C(=O)O)cc2)cc1; Ala(morpholin-4-yl) = N[C@@H](CN1CCOCC1)C(=O)O; Bip = N[C@@H](Cc1ccc(-c2ccccc2)cc1)C(=O)O; Morpholine(3S-CO) = O=C(O)[C@@H]1COCCN1; Val(3-OH) = CC(C)(O)[C@H](N)C(=O)O; 2Pal = N[C@@H](Cc1ccccn1)C(=O)O; Aze = O=C(O)[C@@H]1CCN1; Sar = CNCC(=O)O

Sequences of proteins named here, by UniProt entry; tags and fusion partners are left off. Residues count along the entry.
UniProt P01375, 77-233 limits assumed: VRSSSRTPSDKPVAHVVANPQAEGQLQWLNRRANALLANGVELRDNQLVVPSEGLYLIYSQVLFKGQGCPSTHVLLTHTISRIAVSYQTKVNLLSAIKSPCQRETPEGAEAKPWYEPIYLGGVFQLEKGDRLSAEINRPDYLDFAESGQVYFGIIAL

What follows are compounds tested against TNFα (Homo sapiens, UniProt P01375) (assay: TNF-Induced HEK-Blue Assay). Conditions: summary statement for all examples; read-out: IC50 values measured in the TNF induced HEK-Blue assay.
Type: cell-based

IC50, ≤ 25 µM:
CC(=O)Nc1ccc(-c2ccc(C[C@@H]3NC(=O)[C@H](Cc4ccc(-c5ccccc5)cc4)NC(=O)[C@H](CN4CCOCC4)NC(=O)CSC[C@@H](C(=O)NCC(N)=O)NC(=O)[C@H](CC(C)C)NC(=O)[C@H](CCCNC(=N)N)NC(=O)[C@H](C(C)C)NC(=O)[C@@H]4CCCN4C(=O)[C@H](C(C)C)NC(=O)[C@@H](CCCNC(=N)N)NC(=O)[C@H](CC(=O)O)NC(=O)[C@@H]4CCCN4C(=O)CN(C)C3=O)cc2)cc1 [Example 128] ({CH2CO}-[Ala(morpholin-4-yl)][Bip][Bip(4'-NHAc)][Sar]PD[dR]VPVRLCG-NH2; thioether N-13)
CC(C)C[C@@H]1NC(=O)[C@H](Cc2ccc(O)cc2)NC(=O)[C@H](C(C)C)NC(=O)[C@@H]2CCCN2C(=O)[C@H](C(C)C)NC(=O)[C@@H](CCCNC(=N)N)NC(=O)[C@H](CC(=O)O)NC(=O)[C@@H]2CCCN2C(=O)CNC(=O)[C@H](Cc2ccc(-c3ccccc3)cc2)NC(=O)[C@H](Cc2ccc(-c3ccccc3)cc2)NC(=O)[C@H](CN2CCOCC2)NC(=O)CSC[C@@H](C(=O)NCC(N)=O)NC1=O [Example 129] ({CH2CO}-[Ala(morpholin-4-yl)][Bip][Bip]GPD[dR]VPVYLCG-NH2; thioether N-13)
CC(C)C[C@@H]1NC(=O)[C@H](CCCNC(=N)N)NC(=O)[C@H](C(C)C)NC(=O)[C@@H]2CCCN2C(=O)[C@H](C(C)C)NC(=O)[C@@H](CCCNC(=N)N)NC(=O)[C@H](CC(=O)O)NC(=O)[C@@H]2CCCN2C(=O)CNC(=O)[C@H](Cc2ccc(-c3ccccc3)cc2)NC(=O)[C@H](Cc2ccc(-c3ccccc3)cc2)NC(=O)[C@H](CN2CCOCC2)NC(=O)CSC[C@@H](C(=O)NCC(N)=O)NC1=O [Example 130] ({CH2CO}-[Ala(morpholin-4-yl)][Bip][Bip]GPD[dR]VPVRLCG-NH2; thioether N-13)
CC(C)C[C@@H]1NC(=O)[C@H](Cc2ccc(O)cc2)NC(=O)[C@H](C(C)C)NC(=O)[C@@H]2CCCN2C(=O)[C@H](C(C)C)NC(=O)[C@@H](CCCNC(=N)N)NC(=O)[C@H](CC(=O)O)NC(=O)[C@H](Cc2ccc(O)cc2)NC(=O)CNC(=O)[C@H](Cc2ccc(-c3ccccc3)cc2)NC(=O)[C@H](Cc2ccc(-c3ccccc3)cc2)NC(=O)[C@H](CN2CCOCC2)NC(=O)CSC[C@@H](C(=O)NCC(N)=O)NC1=O [Example 131] ({CH2CO}-[Ala(morpholin-4-yl)][Bip][Bip]GYD[dR]VPVYLCG-NH2; thioether N-13)
CC(C)C[C@@H]1NC(=O)[C@H](CCCNC(=N)N)NC(=O)[C@H](C(C)C)NC(=O)[C@@H]2CCCN2C(=O)[C@H](C(C)C)NC(=O)[C@@H](CCCNC(=N)N)NC(=O)[C@H](CC(=O)O)NC(=O)[C@H](Cc2ccc(O)cc2)NC(=O)CNC(=O)[C@H](Cc2ccc(-c3ccccc3)cc2)NC(=O)[C@H](Cc2ccc(-c3ccccc3)cc2)NC(=O)[C@H](CN2CCOCC2)NC(=O)CSC[C@@H](C(=O)NCC(N)=O)NC1=O [Example 132] ({CH2CO}-[Ala(morpholin-4-yl)][Bip][Bip]GYD[dR]VPVRLCG-NH2; thioether N-13)
CC(C)C[C@@H]1NC(=O)[C@H](Cc2ccc(O)cc2)NC(=O)[C@H](C(C)C)NC(=O)[C@@H]2CCCN2C(=O)[C@H](C(C)C)NC(=O)[C@H](CCCNC(=N)N)NC(=O)[C@H](CC(N)=O)NC(=O)[C@@H]2CCCN2C(=O)CN(C)C(=O)[C@H](Cc2ccc(-c3ccccc3)cc2)NC(=O)[C@H](Cc2ccc(-c3ccccc3)cc2)NC(=O)[C@H](CN2CCOCC2)NC(=O)CSC[C@@H](C(=O)NCC(N)=O)NC1=O [Example 133] ({CH2CO}-[Ala(morpholin-4-yl)][Bip][Bip][Sar]PNRVPVYLCG-NH2; thioether N-13)
CC(C)C[C@@H]1NC(=O)[C@H](Cc2ccc(O)cc2)NC(=O)[C@H](C(C)C)NC(=O)CN(C)C(=O)[C@H](C(C)C)NC(=O)[C@@H](CCCNC(=N)N)NC(=O)[C@H](CC(=O)O)NC(=O)[C@H](Cc2ccc(O)cc2)NC(=O)CN(C)C(=O)[C@H](Cc2ccc(-c3ccccc3)cc2)NC(=O)[C@H](Cc2ccc(-c3ccccc3)cc2)NC(=O)[C@H](CN2CCOCC2)NC(=O)CSC[C@@H](C(=O)NCC(N)=O)NC1=O [Example 134] ({CH2CO}-[Ala(morpholin-4-yl)][Bip][Bip][Sar]YD[dR]V[Sar]VYLCG-NH2; thioether N-13)
CC(C)C[C@@H]1NC(=O)[C@H](CCCNC(=N)N)NC(=O)[C@H](C(C)C)NC(=O)CN(C)C(=O)[C@H](C(C)C)NC(=O)[C@@H](CCCNC(=N)N)NC(=O)[C@H](CC(=O)O)NC(=O)[C@H](Cc2ccc(O)cc2)NC(=O)CN(C)C(=O)[C@H](Cc2ccc(-c3ccccc3)cc2)NC(=O)[C@H](Cc2ccc(-c3ccccc3)cc2)NC(=O)[C@H](CN2CCOCC2)NC(=O)CSC[C@@H](C(=O)NCC(N)=O)NC1=O [Example 135] ({CH2CO}-[Ala(morpholin-4-yl)][Bip][Bip][Sar]YD[dR]V[Sar]VRLCG-NH2; thioether N-13)
CC(C)C[C@@H]1NC(=O)[C@H](Cc2ccc(O)cc2)NC(=O)[C@H](C(C)C)NC(=O)CN(C)C(=O)[C@H](C(C)C)NC(=O)[C@@H](CCCNC(=N)N)NC(=O)[C@H](CC(=O)O)NC(=O)[C@@H]2CCCN2C(=O)CN(C)C(=O)[C@H](Cc2ccc(-c3ccccc3)cc2)NC(=O)[C@H](Cc2ccc(-c3ccccc3)cc2)NC(=O)[C@H](CN2CCOCC2)NC(=O)CSC[C@@H](C(=O)NCC(N)=O)NC1=O [Example 136] ({CH2CO}-[Ala(morpholin-4-yl)][Bip][Bip][Sar]PD[dR]V[Sar]VYLCG-NH2; thioether N-13)
CC(C)C[C@@H]1NC(=O)[C@H](Cc2ccc(O)cc2)NC(=O)[C@H](C(C)C)NC(=O)CNC(=O)[C@H](C(C)C)NC(=O)[C@@H](CCCNC(=N)N)NC(=O)[C@H](CC(=O)O)NC(=O)[C@H](Cc2ccc(O)cc2)NC(=O)CN(C)C(=O)[C@H](Cc2ccc(-c3ccccc3)cc2)NC(=O)[C@H](Cc2ccc(-c3ccccc3)cc2)NC(=O)[C@H](CN2CCOCC2)NC(=O)CSC[C@@H](C(=O)NCC(N)=O)NC1=O [Example 137] ({CH2CO}-[Ala(morpholin-4-yl)][Bip][Bip][Sar]YD[dR]VGVYLCG-NH2; thioether N-13)
CC(C)C[C@@H]1NC(=O)[C@H](CCCNC(=N)N)NC(=O)[C@H](C(C)C)NC(=O)CNC(=O)[C@H](C(C)C)NC(=O)[C@H](CCCNC(=N)N)NC(=O)[C@H](CC(=O)O)NC(=O)[C@H](Cc2ccc(O)cc2)NC(=O)CN(C)C(=O)[C@H](Cc2ccc(-c3ccccc3)cc2)NC(=O)[C@H](Cc2ccc(-c3ccccc3)cc2)NC(=O)[C@H](CN2CCOCC2)NC(=O)CSC[C@@H](C(=O)NCC(N)=O)NC1=O [Example 138] ({CH2CO}-[Ala(morpholin-4-yl)][Bip][Bip][Sar]YDRVGVRLCG-NH2; thioether N-13)
CC(C)C[C@@H]1NC(=O)[C@H](Cc2ccc(O)cc2)NC(=O)[C@H](C(C)C)NC(=O)CNC(=O)[C@H](C(C)C)NC(=O)[C@H](CCCNC(=N)N)NC(=O)[C@H](CC(=O)O)NC(=O)[C@@H]2CCCN2C(=O)CN(C)C(=O)[C@H](Cc2ccc(-c3ccccc3)cc2)NC(=O)[C@H](Cc2ccc(-c3ccccc3)cc2)NC(=O)[C@H](CN2CCOCC2)NC(=O)CSC[C@@H](C(=O)NCC(N)=O)NC1=O [Example 139] ({CH2CO}-[Ala(morpholin-4-yl)][Bip][Bip][Sar]PDRVGVYLCG-NH2; thioether N-13)
CC(C)C[C@@H]1NC(=O)[C@H](Cc2ccc(O)cc2)NC(=O)[C@H](C(C)C)NC(=O)CN(C)C(=O)[C@H](C(C)C)NC(=O)[C@H](CCCNC(=N)N)NC(=O)[C@H](CC(=O)O)NC(=O)[C@H](Cc2ccc(O)cc2)NC(=O)CN(C)C(=O)[C@H](Cc2ccc(-c3ccccc3)cc2)NC(=O)[C@H](Cc2ccc(-c3ccccc3)cc2)NC(=O)[C@H](C(C)(C)O)NC(=O)CSC[C@@H](C(=O)NCC(N)=O)NC1=O [Example 140] ({CH2CO}-[Val(3-OH)][Bip][Bip][Sar]YDRV[Sar]VYLCG-NH2; thioether N-13)
CC(C)C[C@@H]1NC(=O)[C@H](Cc2ccc(O)cc2)NC(=O)[C@H](C(C)C)NC(=O)CN(C)C(=O)[C@H](C(C)C)NC(=O)[C@H](CCCNC(=N)N)NC(=O)[C@H](CC(=O)O)NC(=O)[C@@H]2CCCN2C(=O)CN(C)C(=O)[C@H](Cc2ccc(-c3ccccc3)cc2)NC(=O)[C@H](Cc2ccc(-c3ccccc3)cc2)NC(=O)[C@H](C(C)(C)O)NC(=O)CSC[C@@H](C(=O)NCC(N)=O)NC1=O [Example 141] ({CH2CO}-[Val(3-OH)][Bip][Bip][Sar]PDRV[Sar]VYLCG-NH2; thioether N-13)
CC(C)C[C@@H]1NC(=O)[C@H](Cc2ccc(O)cc2)NC(=O)[C@H](C(C)C)NC(=O)[C@@H]2COCCN2C(=O)[C@H](C(C)C)NC(=O)[C@@H](CCCNC(=N)N)NC(=O)[C@H](CC(=O)O)NC(=O)[C@H](Cc2ccc(O)cc2)NC(=O)CN(C)C(=O)[C@H](Cc2ccc(-c3ccccc3)cc2)NC(=O)[C@H](Cc2ccc(-c3ccccc3)cc2)NC(=O)[C@H](CN2CCOCC2)NC(=O)CSC[C@@H](C(=O)NCC(N)=O)NC1=O [Example 143] ({CH2CO}-[Ala(morpholin-4-yl)][Bip][Bip][Sar]YD[dR]V[Morpholine(3S-CO)]VYLCG-NH2; thioether N-13)
CC(C)C[C@@H]1NC(=O)[C@H](Cc2ccc(O)cc2)NC(=O)[C@H](C(C)C)NC(=O)[C@@H]2CCCN2C(=O)[C@H](C(C)C)NC(=O)[C@@H](CCCNC(=N)N)NC(=O)[C@H](CC(=O)O)NC(=O)[C@H](Cc2ccccn2)NC(=O)CN(C)C(=O)[C@H](Cc2ccc(-c3ccccc3)cc2)NC(=O)[C@H](Cc2ccc(-c3ccccc3)cc2)NC(=O)[C@H](CN2CCOCC2)NC(=O)CSC[C@@H](C(=O)NCC(N)=O)NC1=O [Example 144] ({CH2CO}-[Ala(morpholin-4-yl)][Bip][Bip][Sar][2Pal]D[dR]VPVYLCG-NH2; thioether N-13)
CC(C)C[C@@H]1NC(=O)[C@H](Cc2ccc(O)cc2)NC(=O)[C@H](C(C)C)NC(=O)[C@@H]2CCN2C(=O)[C@H](CC(N)=O)NC(=O)[C@@H](CCCNC(=N)N)NC(=O)[C@H](CC(=O)O)NC(=O)[C@H](Cc2ccc(O)cc2)NC(=O)CN(C)C(=O)[C@H](Cc2ccc(-c3ccccc3)cc2)NC(=O)[C@H](Cc2ccc(-c3ccc(C(=O)O)cc3)cc2)NC(=O)[C@H](CN2CCOCC2)NC(=O)CSC[C@@H](C(=O)NCC(N)=O)NC1=O [Example 145] ({CH2CO}-[Ala(morpholin-4-yl)][Bip(4'-COOH)][Bip][Sar]YD[dR]N[Aze]VYLCG-NH2; thioether N-13)
